Among the data in PMC12585908, “Proteolytic cleavage activates the mitochondrial isoform of TOP3A” are binding values, retold here.

Results are given in words; binding and its absence hold for the method and conditions named. Some results given as binding are weak or reduced against the parent protein; the word gives no strength.

The experiment addresses T1, Mas2 subunit of the yeast mitochondrial processing peptidase (MPP) (yeast) (UniProt P11914).
T1 sequence: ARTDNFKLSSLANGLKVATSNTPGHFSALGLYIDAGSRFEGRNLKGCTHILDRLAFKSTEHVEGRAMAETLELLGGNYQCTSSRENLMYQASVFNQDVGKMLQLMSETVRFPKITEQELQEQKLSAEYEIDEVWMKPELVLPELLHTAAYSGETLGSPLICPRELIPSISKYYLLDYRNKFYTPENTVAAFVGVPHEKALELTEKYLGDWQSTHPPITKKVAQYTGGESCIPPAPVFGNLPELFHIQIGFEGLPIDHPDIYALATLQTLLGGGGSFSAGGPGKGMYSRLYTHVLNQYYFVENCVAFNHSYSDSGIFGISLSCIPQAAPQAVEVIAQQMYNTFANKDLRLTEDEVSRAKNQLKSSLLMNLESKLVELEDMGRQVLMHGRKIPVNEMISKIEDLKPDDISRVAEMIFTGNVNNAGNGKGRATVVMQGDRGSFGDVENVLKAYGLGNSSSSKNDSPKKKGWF
Description: co-purification; Mas1 and Mas2 expressed from one 6 x His-tagged MPP construct in E. coli; purified together over nickel affinity gel, HiTrap Heparin and MonoQ; complex shown on SDS-PAGE.

B1: Mas1 subunit of the yeast mitochondrial processing peptidase (MPP) (enzyme, UniProt P10507 21-462)
chain: SQIPGTRTSKLPNGLTIATEYIPNTSSATVGIFVDAGSRAENVKNNGTAHFLEHLAFKGTQNRSQQGIELEIENIGSHLNAYTSRENTVYYAKSLQEDIPKAVDILSDILTKSVLDNSAIERERDVIIRESEEVDKMYDEVVFDHLHEITYKDQPLGRTILGPIKNIKSITRTDLKDYITKNYKGDRMVLAGAGAVDHEKLVQYAQKYFGHVPKSESPVPLGSPRGPLPVFCRGERFIKENTLPTTHIAIALEGVSWSAPDYFVALATQAIVGNWDRAIGTGTNSPSPLAVAASQNGSLANSYMSFSTSYADSGLWGMYIVTDSNEHNVQLIVNEILKEWKRIKSGKISDAEVNRAKAQLKAALLLSLDGSTAIVEDIGRQVVTTGKRLSPEEVFEQVDKITKDDIIMWANYRLQNKPVSMVALGNTSTVPNVSYIEEKLNQ
On to B1, for which the binding entry is reported as “binds”.
